# Reference: patent publication US11576875B2 (priority 2017, dated 2023)
# At least one structure is not confirmed: it was looked up by name or label, or the drawing left a doubt.
# Columns and labels:
# [1] = tested on: mouse myoblast cell line (C2C12 cells); test: Thickness of myotubes differentiated from mouse myoblasts, muscle reduction induced by dexamethasone; type: cell-based; details: 50 μM dexamethasone alone, 48 hours
# Experimental: First, differentiation of myotubes from mouse myoblasts was induced. A mouse myoblast cell line (C2C12 cells) was purchased from ATCC (Manassas, Va., USA) and used. The purchased cells were inoculated in 10% fetal bovine serum media (Gibco-BRL) and incubated in a 5% CO2 incubator at 37° C. When the confluency of the cells attached to the media became 80% or higher, the cells were transferred to 2% horse serum media (Gibco-BRL) to differentiate myoblasts into myotubes.
# For two days (48 hours) from day 4 after differentiation into myotubes started to be induced, the media were treated with 50 μM dexamethasone (dexa; Sigma Aldrich, USA) to induce muscle reduction. […] As a non-treated control, cells treated with only dexamethasone and not treated with ethyl vanillin were used.
# After completion of the incubation, the cells were washed twice with phosphate buffered saline (PBS), and then fixed by treatment with 100% methanol for 10 minutes. […]
# The stained myotubes were photographed using a fluorescence microscope (IX 71, Olympus) at a magnification of 10×, and then analyzed using image J software (USA). Six sections were randomly selected from each well and micrographed, and the thickness of at least 100 myotubes from each well was analyzed (three repetitions/group).
# p-p70S6K1 protein = test: Protein expression level by Western blotting in myotubes; type: cell-based, mouse; details: dexamethasone alone (Dexa) vs normal cells (Basal)
# Experimental: (§1) After completing the incubation of all experimental groups and the control, the media were removed and a lysis buffer was added to each well to lyse the cells. As the lysis buffer, a 100 mM Tris-HCl buffer solution (pH 7.4) containing 5 mM EDTA, 50 mM sodium pyrophosphate, 50 mM NaF, 100 mM orthovanadate, 1% Triton X-100, 1 mM phenylmethanesulfonyl fluoride (PMSF), […] of aprotinin, 1 μg/mL of pepstatin A, and 1 μg/mL of leupeptin was used. After lysing the cells, the lysates were obtained, and then centrifuged at 1,300×g and 4° C. for 20 minutes, and then the middle layer was taken as a protein layer in the cell extract. For the protein layer, the concentrations of proteins were quantified by the Bradford method. 40 μg of the quantified proteins were electrophoresed by SDS-PAGE, and then the separated proteins were transferred to nitrocellulose membranes (Amersham, Buckinghamshire, UK). Then, the membranes were washed three times for 10 minutes using a Tris-buffered saline and Tween 20 solution (TBS-T), followed by blocking using 10% skim milk for 60 minutes. […] Bands visualized on the X-ray film were scanned and quantified using Quantity One analysis software (Bio-Rad).
# p-4E-BP1 protein = test: as above; type: cell-based, mouse; details: dexamethasone alone (Dexa) vs normal cells (Basal)
# Experimental: as §1
# MaFbx/atrogin 1 = test: mRNA expression level by RT-PCR in myotubes; type: cell-based, mouse; details: dexamethasone alone (Dexa) vs normal cells (Basal)
# Experimental: (§2) After completing the incubation of all experimental groups and the control, cells of each group were obtained, 334 μl of a TRIzol solution per 1×10^7 myotubes was added and replaced, followed by centrifugation at 12,000×g and 4° C. for 10 minutes. Thereafter, the supernatant was transferred to a new tube and 67 μl of chloroform was added thereto, followed by mixing by vortexing. The supernatant in the mixed solution was transferred again to a new tube, and isopropanol was added thereto in a ratio of 1:1 (v:v) of isopropanol to supernatant, followed by vigorous shaking about 10 times and being left at room temperature for 15 minutes. Once again, centrifugation was carried out at 12,000×g and 4° C. for 10 minutes to remove a supernatant, and 1 ml of 70% ethanol was added to the precipitate, followed by centrifugation at 7,500×g and 4° C. for 5 minutes to remove the ethanol, and the tubes were dried at room temperature for 15 minutes. Finally, precipitated RNA was dissolved in nuclease free water to obtain RNA extracted from the cells. The concentration of RNA was identified by measuring absorbance at wavelengths of 260 nm and 280 nm using a UV/VIS spectrometer, and was subjected to electrophoresis to confirm the integrity of RNA samples.
# (§3) Reverse transcription-polymerase chain reaction (RT-PCR) was performed using the prepared RNA samples. […]
# MuRF1 = test: mRNA expression level by RT-PCR in myotubes; type: cell-based, mouse; details: dexamethasone alone (Dexa) vs normal cells (Basal)
# Experimental: as §2, §3
smiles,measurement,setting,value
"C[C@@H]1C[C@H]2[C@@H]3CCC4=CC(=O)C=C[C@]4(C)[C@@]3(F)[C@@H](O)C[C@]2(C)[C@@]1(O)C(=O)CO [dexamethasone, reference compound]",thickness of myotubes compared to normal cells (Basal),[1],significantly reduced
same,amount of p-p70S6K1 protein,p-p70S6K1 protein,significantly reduced
same,amount of p-4E-BP1 protein,p-4E-BP1 protein,significantly reduced
same,expression of MaFbx/atrogin 1 (mRNA),MaFbx/atrogin 1,significantly increased
same,expression of MuRF1 (mRNA),MuRF1,significantly increased
